# Patent publication US11767520B2, “Compositions and methods for treating lung inflammation” (aTyr Pharma, Inc., priority 2017, dated 2023)
# At least one compound was matched to its structure with a doubt left.
# Experiments:
# Format in all cases: in vivo, mouse (male C57Bl/6J)
# [1] = test system: bleomycin-induced lung inflammation and fibrosis; assay: Cell counts in BAL fluid, BLM mouse model (Example 1); details: BLM-induced mice; daily PO from Day 0: dexamethasone 0.25 mg/kg, Nintedanib 60 mg/kg; vs PO vehicle
# Method: (§1) Lung inflammation and fibrosis were induced in male C57Bl/6J mice by oropharyngeal administration of BLM. After the habituation phase mice were randomized based on body weight over the different groups. Under isoflurane anesthesia, 50 μl PBS or BLM was dripped onto the vocal cords facilitating aspiration. Mice were sacrificed at day 21 using a terminal bleed under isoflurane anesthesia.
# (§2) Daily oral treatments commenced on Day 0, while daily IV treatments commenced on Day 8. Dosing was planned to continue until the day of termination (Day 21), however, due to high mortality in IV treated groups (see results), IV dosing was skipped on Day 19 and Day 20. […] Subsequently, the mice received 8% D20 (Kinemed, Emeryville) drinking water until sacrifice to maintain labeling of newly formed collagen. Body weight was monitored three times a week.
# The lungs were flushed two times with 750 μl PBS, combined into one bronchoalveolar lavage (BAL) sample, and stored on ice until centrifugation. The supernatant was collected and stored frozen (<−70° C.). The erythrocytes in the cell pellet were lysed and the remaining cells were resuspended in 100 μl PBS. 20 μl was diluted in trypan blue solution and used for counting the live cells using a hemocytometer.
# [2] = test system: bleomycin-induced lung fibrosis; assay: Lung wet and dry weight, BLM mouse model (Example 1); details: BLM-induced mice; vs respective vehicle
# Method: as §1, §2
# (§3) The five lung lobes were collected and isolated. Wet weight of the medial and accessory lung lobes was recorded. The lobes were then snap frozen and stored at <−70° C. until use for hydroxyproline analysis. The left lung lobe was inflated and fixed for 48 hours in 4% formaldehyde and embedded in paraffin for histological analysis. The cranial lung lobe was snap frozen and stored at −80° C. until shipment to Kinemed for the determination of new collagen formation.
# [3] = test system: bleomycin-induced lung fibrosis; assay: Histological fibrosis (modified Ashcroft) score, BLM mouse model (Example 1); details: BLM-induced mice
# Method: as §3
# Sections of the left lung lobe were stained using Masson's Trichrome and were scored in a blinded fashion using a modified Ashcroft score (Hubner et al., BioTechniques. 44:507-511, 514-507, 2008). Hydroxyproline content was determined in the medial and accessory lung lobes using acid hydrolysis followed by a chromogenic assay (QuickZyme Biosciences, Leiden, Netherlands). Newly formed collagen was measured in the cranial lung lobe by Kinemed Inc., Emeryville, USA using the fraction of body water enriched in 2H for normalization.
structure (smiles),measurement,setting,value
C[C@@H]1C[C@H]2[C@@H]3CCC4=CC(=O)C=C[C@]4(C)[C@@]3(F)[C@@H](O)C[C@]2(C)[C@@]1(O)C(=O)CO [dexamethasone],Live cells counted in BAL fluid at termination,[1],did not significantly affect
same,Change in lung wet or dry weight,[2],significant decrease in lung wet weight
same,"Group mean histological (Ashcroft) score, significance vs respective vehicle","[3]; left lung lobe, Day 21, dexamethasone/Nintedanib PO, Test Article = HisRS1^N8 IV",did not result in a significant decrease
same,"Lung fibrosis, Ashcroft scores from all fields scored, vs vehicle-treated controls","[3]; dexamethasone 0.25 mg/kg, Test Article = HisRS1^N8 10 mg/kg, FIG. 2",significantly reduced lung fibrosis
